Results are given in words; binding and its absence hold for the method and conditions named. Binding calls can cover weak binding; strength is not graded here.
Key:
[1] = molecular target: D. melanogaster HP1, full length, yeast two-hybrid fusion (D. melanogaster) (UniProt P05205); assay: two-hybrid; yeast two-hybrid (pGADT7-AD and pGBKT7-DNA-BD); activation of HIS3, growth on CM-trp-leu-his
[2] = molecular target: D. melanogaster HP6 (Umbrea), yeast two-hybrid fusion (D. melanogaster) (UniProt Q9VR09); assay: as above

Chains of the proteins cited; added tags and fusions are not shown. Lines headed by an entry give the natural chain unless they say otherwise; changes in a name come on top.
UniProt P05205: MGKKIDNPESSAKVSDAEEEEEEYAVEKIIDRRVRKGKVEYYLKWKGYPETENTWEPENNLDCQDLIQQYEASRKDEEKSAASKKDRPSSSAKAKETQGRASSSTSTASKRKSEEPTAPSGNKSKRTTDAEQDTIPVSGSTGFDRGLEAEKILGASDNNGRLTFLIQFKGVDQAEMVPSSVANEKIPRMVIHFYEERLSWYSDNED
UniProt Q9VR09: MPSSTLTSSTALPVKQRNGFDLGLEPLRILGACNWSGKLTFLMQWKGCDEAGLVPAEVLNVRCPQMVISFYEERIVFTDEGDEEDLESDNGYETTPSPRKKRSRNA

binding [1]: binds | binding [2]: binds
Substance: D. pseudoobscura LHR, yeast two-hybrid fusion (from UniProt A0A6I8UT92)

Reference: PMC3060119
